Experiment in all cases: split reporter; BiFC with YFPC and YFPN fusions and Coilin:RFP as nucleus marker in Nicotiana benthamiana leaf epidermal cells; fluorescence examined 2 d after Agrobacterium infiltration
The target in test [1] is T1, WOX5-YFPN (Arabidopsis thaliana) (UniProt Q8H1D2).
T1 sequence: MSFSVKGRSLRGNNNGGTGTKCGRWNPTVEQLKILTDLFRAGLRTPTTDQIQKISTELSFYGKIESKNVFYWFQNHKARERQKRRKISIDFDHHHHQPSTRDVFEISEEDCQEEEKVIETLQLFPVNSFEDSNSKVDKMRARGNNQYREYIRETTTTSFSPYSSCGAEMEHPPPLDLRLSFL

Amino acid sequences for entries named in this document (tags omitted).
UniProt P62577: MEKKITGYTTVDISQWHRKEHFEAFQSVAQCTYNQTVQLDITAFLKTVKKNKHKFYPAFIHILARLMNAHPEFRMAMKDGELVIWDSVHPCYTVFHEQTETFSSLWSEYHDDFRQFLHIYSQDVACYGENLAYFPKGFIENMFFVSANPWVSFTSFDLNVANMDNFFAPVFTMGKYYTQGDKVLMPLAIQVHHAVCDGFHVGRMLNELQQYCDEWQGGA

Test [2] concerns the target T2, WOX1-YFPN (Arabidopsis thaliana) (UniProt Q6X7K0).
T2 sequence: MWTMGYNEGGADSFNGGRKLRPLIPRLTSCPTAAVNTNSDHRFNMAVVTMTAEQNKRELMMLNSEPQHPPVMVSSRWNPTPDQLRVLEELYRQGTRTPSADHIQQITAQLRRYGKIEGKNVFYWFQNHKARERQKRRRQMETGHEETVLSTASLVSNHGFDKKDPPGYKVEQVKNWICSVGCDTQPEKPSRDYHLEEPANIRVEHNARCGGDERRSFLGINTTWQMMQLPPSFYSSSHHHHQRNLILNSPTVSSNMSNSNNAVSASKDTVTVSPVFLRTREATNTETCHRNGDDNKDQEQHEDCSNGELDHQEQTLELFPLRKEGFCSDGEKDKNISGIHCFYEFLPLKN

The target of test [3] is Chloramphenicol Acetyltransferase (CHL):YFPN (UniProt P62577).

Results are given in words; binding and its absence hold for the method and conditions named. In cells and extracts the contact can be indirect. Some binding calls cover weakened binding; strength is not graded here. Tags and fused reporters may be left off the sequences shown.

B1: AtMS1-YFPC (enzyme, UniProt O50008 1-765)
chain: MASHIVGYPRMGPKRELKFALESFWDGKSTAEDLQKVSADLRSSIWKQMSAAGTKFIPSNTFAHYDQVLDTTAMLGAVPPRYGYTGGEIGLDVYFSMARGNASVPAMEMTKWFDTNYHYIVPELGPEVNFSYASHKAVNEYKEAKALGVDTVPVLVGPVSYLLLSKAAKGVDKSFELLSLLPKILPIYKEVITELKAAGATWIQLDEPVLVMDLEGQKLQAFTGAYAELESTLSGLNVLVETYFADIPAEAYKTLTSLKGVTAFGFDLVRGTKTLDLVKAGFPEGKYLFAGVVDGRNIWANDFAASLSTLQALEGIVGKDKLVVSTSCSLLHTAVDLINETKLDDEIKSWLAFAAQKVVEVNALAKALAGQKDEALFSANAAALASRRSSPRVTNEGVQKAAAALKGSDHRRATNVSARLDAQQKKLNLPILPTTTIGSFPQTVELRRVRREYKAKKVSEEDYVKAIKEEIKKVVDLQEELDIDVLVHGEPERNDMVEYFGEQLSGFAFTANGWVQSYGSRCVKPPVIYGDVSRPKAMTVFWSAMAQSMTSRPMKGMLTGPVTILNWSFVRNDQPRHETCYQIALAIKDEVEDLEKGGIGVIQIDEAALREGLPLRKSEHAFYLDWAVHSFRITNCGVQDSTQIHTHMCYSHFNDIIHSIIDMDADVITIENSRSDEKLLSVFREGVKYGAGIGPGVYDIHSPRIPSSEEIADRVNKMLAVLEQNILWVNPDCGLKTRKYTEVKPALKNMVDAAKLIRSQLASAK
Take B1: the binding entry in test [1] is on record as “binds”.

B2: AtMS2-YFPC (AtMS2 in fusion with the C-terminal half of YFP) (enzyme, UniProt Q9SRV5 1-765)
chain: MASHIVGYPRMGPKRELKFALESFWDGKSSADDLQKVSADLRSDIWKQMSAAGIKYIPSNTFSHYDQVLDTTAMLGAVPSRYGFTSGEIGLDVYFSMARGNASVPAMEMTKWFDTNYHYIVPELGPEVKFSYASHKAVNEYKEAKALGVETVPVLVGPVSYLLLSKLAKGVDKSFDLLSLLPKILPVYKEVIAELKAAGASWIQLDEPLFVMDLEGHKLQAFSGAYAELESTLSGLNVLVETYFADIPAEAYKTLTSLKGVTAFGFDLVRGTKTIDLIKSGFPQGKYLFAGVVDGRNIWANDLAASLITLQSLEGVVGKDKLVVSTSCSLLHTAVDLINETKLDAEIKSWLAFAAQKVVEVDALAKALAGQTNESFFTANADALSSRRSSPRVTNESVQKAAAALKGSDHRRTTEVSARLDAQQKKLNLPILPTTTIGSFPQTVELRRVRREYKAKKISEEDYVKAIKEEIKKVVDIQEDLDIDVLVHGEPERNDMVEYFGEQLSGFAFTANGWVQSYGSRCVKPPVIYGDVSRPKPMTVFWSSTAQSMTKRPMKGMLTGPVTILNWSFVRNDQPRHETCYQIALAIKDEVEDLEKGGIGVIQIDEAALREGLPLRKAEHSFYLDWAVHSFRITNCGVQDSTQIHTHMCYSNFNDIIHSIIDMDADVITIENSRSDEKLLSVFREGVKYGAGIGPGVYDIHSPRIPSTDEIADRINKMLAVLEQNILWVNPDCGLKTRKYTEVKPALKAMVDAAKLIRSQLGSAK
With B2, the binding result in test [2] is recorded as “no binding”; in test [1] it was “binds”; in test [3] it was “no binding”.

The values are drawn from paper PMC11359516, “Methionine Synthase 2 Represses Stem Cell Maintenance of Arabidopsis thaliana in Response to Salt Stress” (Plants, 2024).
